The target in this assay is ubiquitin-conjugating enzyme E2 K (UBE2K) (human (endogenous in H9 hESCs)) (UniProt P61086). Description: co-IP; immunoprecipitation with anti-UBE2K antibody (control: anti-FLAG antibody) from H9 hESC lysate in modified RIPA buffer (50 mM Tris-HCl pH 7.4, 150 mM NaCl, 1 % IgPal, 0.25% sodium deoxycholate, 1 mM EDTA), Protein A magnetic beads, 4 °C; western blot.

Chains of the proteins cited; added tags and fusions are not shown.
UniProt P61086: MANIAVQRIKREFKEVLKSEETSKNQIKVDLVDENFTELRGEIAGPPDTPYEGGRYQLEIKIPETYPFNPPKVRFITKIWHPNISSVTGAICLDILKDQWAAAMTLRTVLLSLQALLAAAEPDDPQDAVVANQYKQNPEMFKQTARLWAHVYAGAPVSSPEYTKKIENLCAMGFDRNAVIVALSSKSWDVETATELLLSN
UniProt P42858: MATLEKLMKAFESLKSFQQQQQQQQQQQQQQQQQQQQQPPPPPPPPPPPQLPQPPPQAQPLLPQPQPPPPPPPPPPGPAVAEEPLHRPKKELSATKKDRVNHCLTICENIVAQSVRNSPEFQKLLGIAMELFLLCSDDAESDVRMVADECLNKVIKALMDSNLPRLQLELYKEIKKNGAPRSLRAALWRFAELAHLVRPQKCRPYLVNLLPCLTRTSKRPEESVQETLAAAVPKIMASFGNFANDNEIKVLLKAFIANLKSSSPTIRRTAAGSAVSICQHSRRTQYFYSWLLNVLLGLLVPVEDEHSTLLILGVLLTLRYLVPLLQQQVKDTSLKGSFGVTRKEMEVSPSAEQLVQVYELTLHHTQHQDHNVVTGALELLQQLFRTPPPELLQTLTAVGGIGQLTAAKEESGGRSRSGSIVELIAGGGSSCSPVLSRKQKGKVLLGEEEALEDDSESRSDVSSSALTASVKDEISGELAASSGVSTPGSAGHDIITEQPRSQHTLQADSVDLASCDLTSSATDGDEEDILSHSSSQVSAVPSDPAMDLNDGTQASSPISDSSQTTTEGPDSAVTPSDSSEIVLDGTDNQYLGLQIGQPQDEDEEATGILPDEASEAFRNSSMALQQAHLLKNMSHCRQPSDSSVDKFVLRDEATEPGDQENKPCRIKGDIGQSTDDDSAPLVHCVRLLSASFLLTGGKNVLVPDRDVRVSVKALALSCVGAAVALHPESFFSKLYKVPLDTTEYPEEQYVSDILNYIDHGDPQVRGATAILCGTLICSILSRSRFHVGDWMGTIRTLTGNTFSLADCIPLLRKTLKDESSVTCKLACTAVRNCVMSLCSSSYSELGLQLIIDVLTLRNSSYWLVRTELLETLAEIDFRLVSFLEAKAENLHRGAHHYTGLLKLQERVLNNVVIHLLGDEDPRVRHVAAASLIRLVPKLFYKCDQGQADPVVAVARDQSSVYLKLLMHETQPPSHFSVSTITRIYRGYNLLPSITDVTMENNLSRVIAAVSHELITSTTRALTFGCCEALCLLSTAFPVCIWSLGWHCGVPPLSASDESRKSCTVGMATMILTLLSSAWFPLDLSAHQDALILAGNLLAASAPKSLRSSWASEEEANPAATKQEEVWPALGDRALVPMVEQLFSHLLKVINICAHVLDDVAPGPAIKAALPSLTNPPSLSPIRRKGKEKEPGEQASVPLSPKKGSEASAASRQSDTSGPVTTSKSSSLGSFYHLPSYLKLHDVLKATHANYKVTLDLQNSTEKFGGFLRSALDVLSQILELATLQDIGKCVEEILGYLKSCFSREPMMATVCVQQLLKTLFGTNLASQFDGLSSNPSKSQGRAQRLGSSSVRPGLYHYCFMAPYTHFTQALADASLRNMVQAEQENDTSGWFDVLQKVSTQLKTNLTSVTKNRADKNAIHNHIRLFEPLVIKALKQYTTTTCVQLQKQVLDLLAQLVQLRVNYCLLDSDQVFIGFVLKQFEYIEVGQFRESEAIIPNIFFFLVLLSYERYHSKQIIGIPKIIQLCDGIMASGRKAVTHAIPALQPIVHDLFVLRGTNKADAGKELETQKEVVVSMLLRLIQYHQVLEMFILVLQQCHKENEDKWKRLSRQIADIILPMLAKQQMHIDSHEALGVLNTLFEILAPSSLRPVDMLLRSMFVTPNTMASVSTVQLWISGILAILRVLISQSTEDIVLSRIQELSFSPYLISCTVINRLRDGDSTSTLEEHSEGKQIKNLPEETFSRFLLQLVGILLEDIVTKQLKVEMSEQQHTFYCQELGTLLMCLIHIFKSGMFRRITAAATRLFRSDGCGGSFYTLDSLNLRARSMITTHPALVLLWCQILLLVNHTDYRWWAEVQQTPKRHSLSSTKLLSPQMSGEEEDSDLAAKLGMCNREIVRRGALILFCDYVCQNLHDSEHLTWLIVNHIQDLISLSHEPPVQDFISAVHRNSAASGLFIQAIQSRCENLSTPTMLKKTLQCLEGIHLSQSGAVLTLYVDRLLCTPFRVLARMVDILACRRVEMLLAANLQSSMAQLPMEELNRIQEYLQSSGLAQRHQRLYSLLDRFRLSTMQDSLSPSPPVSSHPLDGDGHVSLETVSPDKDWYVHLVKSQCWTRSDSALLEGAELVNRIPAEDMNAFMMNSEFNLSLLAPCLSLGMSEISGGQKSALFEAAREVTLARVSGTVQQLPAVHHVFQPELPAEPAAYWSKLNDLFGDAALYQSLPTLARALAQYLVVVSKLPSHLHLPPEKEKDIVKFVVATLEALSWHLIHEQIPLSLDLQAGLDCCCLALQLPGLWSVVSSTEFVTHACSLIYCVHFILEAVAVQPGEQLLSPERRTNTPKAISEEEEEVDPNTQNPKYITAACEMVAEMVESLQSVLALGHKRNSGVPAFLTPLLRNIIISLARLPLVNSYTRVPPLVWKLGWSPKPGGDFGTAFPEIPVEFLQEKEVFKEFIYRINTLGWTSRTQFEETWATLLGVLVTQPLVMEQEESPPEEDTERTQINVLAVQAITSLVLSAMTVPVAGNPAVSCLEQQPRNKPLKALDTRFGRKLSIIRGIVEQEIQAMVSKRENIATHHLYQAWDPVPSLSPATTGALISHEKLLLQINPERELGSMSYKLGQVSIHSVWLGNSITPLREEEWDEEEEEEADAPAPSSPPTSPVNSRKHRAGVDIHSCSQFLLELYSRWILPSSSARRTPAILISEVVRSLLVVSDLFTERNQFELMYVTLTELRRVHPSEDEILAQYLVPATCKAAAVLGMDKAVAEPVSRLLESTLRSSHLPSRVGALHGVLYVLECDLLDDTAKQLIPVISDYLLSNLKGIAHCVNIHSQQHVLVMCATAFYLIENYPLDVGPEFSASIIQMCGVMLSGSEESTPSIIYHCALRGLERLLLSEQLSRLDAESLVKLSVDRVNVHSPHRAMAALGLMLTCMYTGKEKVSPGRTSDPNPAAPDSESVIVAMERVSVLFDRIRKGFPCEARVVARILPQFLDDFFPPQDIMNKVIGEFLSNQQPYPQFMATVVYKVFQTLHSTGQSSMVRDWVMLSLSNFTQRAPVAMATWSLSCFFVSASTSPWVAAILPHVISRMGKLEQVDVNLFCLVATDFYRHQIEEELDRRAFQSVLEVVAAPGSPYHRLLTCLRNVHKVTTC

No constants are given. Whether binding was seen depends on the method and setting. Binding seen in cells or lysates may run through a third protein. Some entries that bind do so weakly or less than the wild type.

For the substance “huntingtin protein (HTT) (from UniProt P42858 1-3142)”, the binding entry is “binds”.

The record behind these values is paper PMC7248108.
